The target in assay [1] is T1, p41 (Pyrococcus furiosus protein with DNA primase and DNA polymerase activity), produced with a six-histidine tag at the N-terminus (Pyrococcus furiosus) (UniProt Q9P9H1).
T1 sequence: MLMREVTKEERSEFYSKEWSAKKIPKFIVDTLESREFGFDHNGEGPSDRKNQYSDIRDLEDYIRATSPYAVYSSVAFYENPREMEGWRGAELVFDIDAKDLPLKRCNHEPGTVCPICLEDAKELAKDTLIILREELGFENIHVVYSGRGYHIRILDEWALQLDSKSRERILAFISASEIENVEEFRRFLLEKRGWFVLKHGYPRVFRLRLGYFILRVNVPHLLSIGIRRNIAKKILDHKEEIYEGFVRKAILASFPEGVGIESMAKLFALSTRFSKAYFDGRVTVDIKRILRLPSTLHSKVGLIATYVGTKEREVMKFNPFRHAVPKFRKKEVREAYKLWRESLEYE
The experiment in a line: co-elution from cation exchange column chromatography, gel of fractions (FIG. 4).

The target of assay [2] is T1, p41 (Pyrococcus furiosus protein with DNA primase and DNA polymerase activity), produced with a six-histidine tag at the N-terminus (Pyrococcus furiosus). Put plainly: co-elution from cation-exchange column (HiTrap SP); p46 alone passes through, p41 alone is retained.

These are yes or no findings as the source states them, for the method shown. Binding seen in cells or lysates may run through a third protein. Some entries that bind do so weakly or less than the wild type. Tags and fused reporters may be left off the sequences shown.

B1: p46 (Pyrococcus furiosus protein that forms a complex with p41) (protein)
chain: MLDPFSEKAKELLKEFGSMNEFLQAIPSLVDIEEVMNRLKFAKESEISEDILNIEDIRDLASFYAQIGALAYSPYGLELELVKKANLRIYTERIRRRRKIRSDEIGIEVKIAVEFPENDIKTLEKVYGGLPEYIVSLREFLDLVPDEKLSSYYVYDGNVYLRKDDLLKVWSKAFERNVEKAVNIIYEIRDELPEFYRRLAGEIRSFAEKEFSDKFREVQAGELKHHLFPPCVKNALRGVPQGMRNYAITVLLTSFLSYARICPNPPRRNVKIRDCIKDMRVITEEILPIIIEAGNRCSPPLFEDQPNEIKNIWYHLGFGYTANPTLEDSGNSTWYFPPNCDKIKANAPQLCTPDKHCRYIRNPLTYYLRRLYLEEKRRAKHADEGSDKGGKERILQ
Consider B1, for which the binding result in assay [1] and in assay [2] was “binds” throughout.
